Laboratory results from the supplement of paper PMC12259267, “Disruption of the KLHL37–N-Myc complex restores N-Myc degradation and arrests neuroblastoma growth in mouse models” (The Journal of Clinical Investigation, 2025).
Where a name gives a salt, the structure may show the parent alone. The list shows a part of the results. Many values rest on one well or one pass, so single values are uncertain.

System: SK-N-BE(2)
Assay: inhibition of N-Myc immunofluorescence signal per cell relative to control (fraction); higher = stronger N-Myc protein reduction
Details: 1 µM; 9 h

| Compound | inhibition of N-Myc immunofluorescence signal per cell |
| --- | --- |
| CCN(c1cc(-c2ccc(CN3CCOCC3)cc2)cc(C(=O)NCc2c(C)cc(C)[nH]c2=O)c1C)C1CCOCC1 [Tazemetostat] | 0.0426 |
| Cc1ccc(S(=O)(=O)/C=C/C#N)cc1 | 0.202 |
| NCCCC(O)(P(=O)(O)O)P(=O)(O)O [Alendronate (sodium hydrate)] | 0.24 |
| Cc1ccc2nc(NC(=O)CSc3nc4c(c(=O)n3-c3ccccc3)SCC4)sc2c1 | -0.00853 |
| CN(C)CCCNC(=O)c1ccc(-c2cc(O)c3ncccc3c2)cc1 | -0.263 |
| COc1ccc(CN(C(=O)Cc2cccs2)c2cc(OC)c(OC)c(OC)c2)cc1 | 0.346 |
| CC(C(=O)Nc1cccc(/N=C/c2c(O)ccc3ccccc23)c1)c1ccccc1 (stereo not given) [Salermide] | -0.0596 |
| CC(C)=CC[C@@H](O)C1=CC(=O)c2c(O)ccc(O)c2C1=O [Shikonin] | 0.131 |
| CCC(Sc1nnc2c(n1)[nH]c1ccccc12)C(=O)N1c2ccccc2Sc2ccccc21 (stereo not given) [Inauhzin] | -0.0585 |
| CCCC(=O)[O-].[Na+] [Sodium Butyrate] | 0.0512 |
| CC(C)N(CCCNC(=O)Nc1ccc(C(C)(C)C)cc1)C[C@H]1O[C@@H](n2ccc3c(N)ncnc32)[C@H](O)[C@@H]1O | -0.209 |
| COC(=O)/C=C/C(=O)OC [Dimethyl Fumarate] | 0.046 |
| Cc1sc(C(=O)c2cncnc2N[C@@H]2C[C@H](COS(N)(=O)=O)[C@@H](O)C2)cc1[C@@H]1NCCc2ccc(Cl)cc21 | 0.266 |
| CCCCNNC(=O)c1ccc(-c2cccc(F)c2F)cc1 | -0.0356 |
| Cc1cc(C)cc(Oc2ccc(CNC(=O)[C@H](C)N)cc2C)c1 | -0.016 |

As a short view, some entries already given:

| Compound | inhibition of N-Myc immunofluorescence signal per cell |
| --- | --- |
| NCCCC(O)(P(=O)(O)O)P(=O)(O)O [Alendronate (sodium hydrate)] | 0.24 |
| Cc1ccc2nc(NC(=O)CSc3nc4c(c(=O)n3-c3ccccc3)SCC4)sc2c1 | -0.00853 |
